This is one part of the list. Repeats in this data set agree poorly, so a single value says little.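 Fusion between ACE2-bearing and full-length-spike-bearing U2OS cells was measured by imaging as the percentage of nuclei with both cell types' fluorescent markers. An inhibitory hit is a non-toxic compound whose fusion z-score is below -3, more than three standard deviations beneath the plate's DMSO wells.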
test system: U2OS ACE2 x SARS-CoV-2 spike co-culture; assay: cell-cell fusion (fraction fused) z-score vs plate DMSO control; higher = more fusion; conditions: 30 µM; 5 h; toxicity class: non-toxic, passed QC

Compound	cell-cell fusion (z-score)
CC(=O)O[C@H]1CC2(C)[C@@H](C[C@@H](O)[C@H]3[C@@]4(C)CC[C@@H](O)[C@@H](C)[C@@H]4CC[C@@]32C)/C1=C(/CCC=C(C)C)C(=O)[O-].[Na+] (stereo partly drawn) [Fusidic acid sodium]	inactive: 4.88
COc1nc(C)nc(Cl)c1NC1=NCCN1.Cl [Moxonidine hydrochloride]	inactive: 2.24
C=C[C@@H]1C[C@]1(NC(=O)[C@@H]1C[C@@H]2CN1C(=O)[C@H](C(C)(C)C)NC(=O)O[C@@H]1C[C@H]1CCCCCc1nc3ccc(OC)cc3nc1O2)C(=O)NS(=O)(=O)C1CC1 [Grazoprevir]	inactive: 1.81
O=C(O)c1cc(=O)[nH]c(=O)[nH]1	inactive: 0.353
CC1=C(/C=C/C(C)=C/C=C/C(C)=C/C=C/C=C(C)/C=C/C=C(C)/C=C/C(=O)[C@]2(C)C[C@@H](O)CC2(C)C)C(C)(C)C[C@H](O)C1	inactive: 2
Cl.OC(CCN1CCCCC1)(c1ccccc1)C1CCCCC1 (stereo not drawn)	inactive: 2.55
Cl.OC(CCN1CCCCC1)(c1ccccc1)C1CCCCC1 (stereo not drawn) [Trihexyphenidyl hydrochloride]	inactive: 0.554
Nc1ccn([C@H]2CC[C@@H](CO)O2)c(=O)n1 [2',3'-dideoxycytidine]	inactive: 2.34
Nc1ccn([C@H]2CC[C@@H](CO)O2)c(=O)n1	inactive: 1.11
CC(C)(CO)[C@@H](O)C(=O)NCCCO [Dexpanthenol]	inactive: 1.14
CC(C)(Oc1ccc(C(=O)c2ccc(Cl)cc2)cc1)C(=O)O	inactive: 1.17
CC[N+](CC)(CC)CC.[Cl-] [Tetraethylammonium chloride]	inactive: 0.82
CC(C)Oc1ccc2c(=O)cc(-c3ccccc3)oc2c1	inactive: 0.61
C[C@@H](O)[C@H]1C(=O)N2C(C(=O)O)=C(SCCNC=N)C[C@H]12.O [Imipenem]	inactive: 2.96
C[C@]12CCC3=C4CCC(=O)C=C4CC[C@H]3[C@@H]1CC[C@@]2(O)CC#N [Dienogest]	inactive: 1.01
Cc1ccccc1/C=C/C1=NCCN1.O=C(O)C(=O)O [Metrazoline oxalate]	inactive: 3.21
Nc1nc(N)c(N=O)c(OCC2CCCCC2)n1	inactive: 0.346
Br.C/N=c1/nc(-c2ccccc2)n(-c2ccccc2)s1	inactive: 2.21
C#Cc1cccc(Nc2ncnc3cc(OCCOC)c(OCCOC)cc23)c1.Cl [Erlotinib HCl]	inactive: 0.843
O=c1c(O)c(-c2ccc(O)cc2O)oc2cc(O)cc(O)c12	inactive: 1.85
CN(Cc1cnc2nc(N)nc(N)c2n1)c1ccc(C(=O)NC(CCC(=O)O)C(=O)O)cc1 (racemic)	inactive: -0.458
COc1cc(OC)cc(-c2cc3cnc(N)nc3nc2NC(=O)NC(C)(C)C)c1	inactive: 3.06
CC1=CC(=O)C2C(C)(C)CCC[C@]2(C)[C@@]1(O)CCc1ccoc1 (stereo partly drawn)	inactive: 1.92
CCOc1cc(C(=O)Nc2ccc(Cl)c(-c3nc4ccccc4[nH]3)c2)cc(OCC)c1OCC	inactive: -0.496
CC(=O)c1cccc(N[C@H]2[C@H](N)[C@@](NC(=O)N(C)C)([C@H](C)O)[C@@](C)(O)[C@@]2(O)COC(=O)c2c(C)cccc2O)c1 [Pactamycin]	inactive: 1.03

Compound	cell-cell fusion (z-score)
CN(CCCCCCCCCCN(C)C(=O)Oc1cccc([N+](C)(C)C)c1)C(=O)Oc1cccc([N+](C)(C)C)c1.[Br-].[Br-] [Demecarium bromide]	inactive: 1.49
Cc1c(C(N)=O)cc([N+](=O)[O-])cc1[N+](=O)[O-]	inactive: 2.24
CCOC(=O)CC(=O)N1CCSC1COc1ccccc1OC (stereo not drawn)	inactive: 1.3
O.O.O=C(Nc1ccc2c(c1)CCN(Cc1ncn[nH]1)C2)c1ccccc1-c1ccc(C(F)(F)F)cc1	inactive: 2.02
Cl.NCCS [Cysteamine hydrochloride]	inactive: 3.35
Cl.NCCS [Cysteamine HCl]	inactive: 2.47
CC1(C)C(=O)[C@@H]2O[C@@H]2[C@@]2(C)C1C[C@@H](O)[C@]1(C)C2CC[C@@]2(C)[C@H](c3ccoc3)OC(=O)C3OC321 (stereo partly drawn) [1,2alpha-EPOXYDEACETOXYDIHYDROGEDUNIN]	inactive: 1.34
CC[C@H]1OC(=O)[C@H](C)[C@@H](O[C@H]2C[C@@](C)(OC)[C@@H](O)[C@H](C)O2)[C@H](C)[C@@H](O[C@@H]2O[C@H](C)C[C@H](N(C)C)[C@H]2O)[C@](C)(O)C[C@@H](C)C(=O)[C@H](C)[C@@H](O)[C@]1(C)O	inactive: 0.394
CNC(=O)Oc1cccc2ccccc12	inactive: -0.374
CCN(CC)C(=O)C1(c2ccccc2)CC1CN (stereo not drawn) [Levomilnacipran]	inactive: 1.29
COC(=O)N/N=C/c1c[n+]([O-])c2ccccc2[n+]1[O-]	inactive: 3.12
CC(C)[C@H](N)C(=O)O	inactive: 1
CC(C)[C@H](N)C(=O)O [L-Valine]	inactive: 1.84
C[C@]12CCC(=O)C=C1C=CC1C2CC[C@@]2(C)C1CC[C@@]21CCC(=O)O1 (stereo partly drawn)	inactive: 3.84
COc1c2ccoc2cc2oc(C)cc(=O)c12	inactive: 1.67
CCOc1nc2cccc(C(=O)O)c2n1Cc1ccc(-c2ccccc2-c2noc(=O)[nH]2)cc1 [Azilsartan]	inactive: 0.627
COCC(=O)NC/C=C/c1ccc2ncnc(Nc3ccc(Oc4ccc(C)nc4)c(C)c3)c2c1	inactive: -0.0204
N=C(N)NCCCCN.O=S(=O)(O)O	inactive: 1.99
N=C(N)NCCCCN.O=S(=O)(O)O [Agmatine sulfate]	inactive: 2.88
Nc1ccc(CCN2CCN(c3cccc(C(F)(F)F)c3)CC2)cc1	inactive: -1.3
CCN(CC)CCn1c(=O)c(Cc2ccc(OC)cc2)nc2ccccc21.Cl [Caroverine hydrochloride]	inactive: 2.67
COc1ccc(C(=O)c2ccccc2O)c(O)c1	inactive: 1.3
CC(C)[C@H](NC(=O)OCc1ccccc1)C(=O)N[C@H](C=O)Cc1ccccc1	inactive: 2.86
COc1cc(/C=C/c2ccc(O)cc2)cc(OC)c1	inactive: 2.95
Cl.Nc1c2c(nc3ccccc13)CCCC2.O [Tacrine hydrochloride hydrate]	inactive: 1.53

As entered above.
COc1cc(/C=C/c2ccc(O)cc2)cc(OC)c1 | cell-cell fusion (z-score): inactive: 2.95
COc1ccc(C(=O)c2ccccc2O)c(O)c1 | cell-cell fusion (z-score): inactive: 1.3

Additional results follow:

Compound	cell-cell fusion (z-score)
COc1cc2ncnc(Nc3cccc(Cl)c3)c2cc1OC [AG-1478 (Tyrphostin AG-1478)]	inactive: -2.48
CC[N+](C)(C)Cc1ccc(Br)cc1.Cc1ccc(S(=O)(=O)[O-])cc1	inactive: 2.65
O=C(O)[C@H](O)[C@@](O)(Cc1ccc(O)cc1)C(=O)O	inactive: 2.77
CC(C)OC(=O)OCOP(=O)(CO[C@H](C)Cn1cnc2c(N)ncnc21)OCOC(=O)OC(C)C.O=C(O)/C=C/C(=O)O [Tenofovir Disoproxil Fumarate]	inactive: 0.791
CC(=O)Oc1cc(C(F)(F)F)ccc1C(=O)O [Triflusal]	inactive: 0.728
CC(N/C(=N\C#N)Nc1ccncc1)C(C)(C)C (stereo not drawn) [Pinacidil]	inactive: 1.37
COc1ccc(/C=C/C(=O)O)cc1OC	inactive: 3.29
C[C@H]1CCN(C(=O)CC#N)C[C@@H]1N(C)c1ncnc2[nH]ccc12.O=C(O)CC(O)(CC(=O)O)C(=O)O	inactive: 2.66
C#CCn1c(=O)c2c(ncn2C)n(C)c1=O [3,7-Dimethyl-1-propargylxanthine]	inactive: 1.38
COc1ccc(-c2cc(=O)c3c(O)c(OC)c(OC)cc3o2)cc1O [Eupatorin]	inactive: 1.71
O=C(c1ccc2c(c1)OCCO2)N1CCCCC1	inactive: 0.0733
C[C@]12CC[C@H]3[C@@H](CC[C@@]45O[C@@H]4C(O)=C(C#N)C[C@]35C)[C@@H]1CC[C@@H]2O [Trilostane]	inactive: 1.92
C=C1C(N)CC2CC1C2(C)C.Cl (stereo not drawn) [3-AMINO-beta-PINENE]	inactive: 3.02
Cc1nnc(C(=O)NC(C)(C)c2nc(C(=O)NCc3ccc(F)cc3)c([O-])c(=O)n2C)o1.[K+] [Raltegravir potassium]	inactive: 1.98
CN(C/C=C/C#CC(C)(C)C)Cc1cccc2ccccc12.Cl [Terbinafine hydrochloride]	inactive: 2.83
Cc1ccccc1N1C(=O)c2cc(S(N)(=O)=O)c(Cl)cc2NC1C (stereo not drawn) [Metolazone]	inactive: 3.74
Cc1c(CCOc2ccc(C(=O)O)cc2)c2cc(Cl)ccc2n1C(c1ccccc1)c1ccccc1	inactive: 1.09
COc1ccccc1N1CCN(CCCNc2c(C)c(=O)n(C)c(=O)n2C)CC1 [Urapidil, 5-Methyl-]	inactive: -0.0275
CC(=O)O[C@H]1Cc2ccccc2N(C(N)=O)c2ccccc21 [Eslicarbazepine Acetate]	inactive: 2.24
NC(CP(=O)(O)O)C(=O)O (racemic) [(±)-2-Amino-3-phosphonopropionic acid]	inactive: 1.18
C=C(CC)C(=O)c1ccc(OCC(=O)O)c(Cl)c1Cl [Ethacrynic acid]	inactive: 1.21
CC(=O)OCC[N+](C)(C)C.[Cl-] [Acetylcholine chloride]	inactive: 1.95
CC(=O)OCC[N+](C)(C)C.[Cl-]	inactive: 0.523

A second format for part of the listing above:

| Compound | cell-cell fusion (z-score) |
| --- | --- |
| CC[N+](C)(C)Cc1ccc(Br)cc1.Cc1ccc(S(=O)(=O)[O-])cc1 | inactive: 2.65 |
| CC(N/C(=N\C#N)Nc1ccncc1)C(C)(C)C (stereo not drawn) [Pinacidil] | inactive: 1.37 |
| Cc1nnc(C(=O)NC(C)(C)c2nc(C(=O)NCc3ccc(F)cc3)c([O-])c(=O)n2C)o1.[K+] [Raltegravir potassium] | inactive: 1.98 |
